What all share (assay): SEC-MALS
A general note: Size exclusion chromatography separates by hydrodynamic size, large species first.

Experiment [1] addresses KIF20A 1-520 (monomeric construct) (mouse) (UniProt P97329).
Experiment [2] addresses KIF20A 55-510 (minimal motor domain construct used in crystallography) (mouse) (UniProt P97329).
The target of experiment [3] is KIF20A 1-565 (full-length motor domain, monomeric construct) (mouse) (UniProt P97329).
Experiment [4] concerns the target KIF20A 25-520 (monomeric construct) (mouse) (UniProt P97329).
Experiment [5] concerns the target KIF20A 55-565 (monomeric construct) (mouse) (UniProt P97329).

The text below walks through data of paper doi:10.1101/2022.11.10.515925 (bioRxiv, 2022).

These are yes or no findings as the source states them, for the method shown.

B1: KIF20A 1-520 (monomeric construct) (domain or fragment, UniProt P97329 1-520)
chain: MSHRILSPPAGLLSDEDVVDSPILESTAADLRSVVRKDLLSDCSVISASLEDKQALLEDTSEKVKVYLRIRPFLTSELDRQEDQGCVCIENTETLVLQAPKDSFALKSNERGVGQATHKFTFSQIFGPEVGQVAFFNLTMKEMVKDVLKGQNWLIYTYGVTNSGKTYTIQGTSKDAGILPQSLALIFNSLQGQLHPTPDLKPLLSNEVIWLDSKQIRQEEMKKLSLLIGGLQEEELSTSVKKRVHTESRIGASNSFDSGVAGLSSTSQFTSSSQLDETSQLWAQPDTVPVSVPADIRFSVWISFFEIYNELLYDLLEPPSHQHKRQTLRLCEDQNGNPYVKDLNWIHVRDVEEAWKLLKVGRKNQSFASTHMNQQSSRSHSIFSIRILHLQGEGDIVPKISELSLCDLAGSERCKHQKSGERLKEAGNINTSLHTLGRCIAALRQNQQNRSKQNLIPFRDSKLTRVFQGFFTGRGRSCMIVNVNPCASTYDETLHAAKFSALASQLVHAPPVHLGIPSLH
For B1, in experiment [1], the binding entry is on record as “no binding (tested: 5 mg/mL)”.

B2: KIF20A 55-510 (minimal motor domain construct used in crystallography) (domain or fragment, UniProt P97329 55-510)
chain: ALLEDTSEKVKVYLRIRPFLTSELDRQEDQGCVCIENTETLVLQAPKDSFALKSNERGVGQATHKFTFSQIFGPEVGQVAFFNLTMKEMVKDVLKGQNWLIYTYGVTNSGKTYTIQGTSKDAGILPQSLALIFNSLQGQLHPTPDLKPLLSNEVIWLDSKQIRQEEMKKLSLLIGGLQEEELSTSVKKRVHTESRIGASNSFDSGVAGLSSTSQFTSSSQLDETSQLWAQPDTVPVSVPADIRFSVWISFFEIYNELLYDLLEPPSHQHKRQTLRLCEDQNGNPYVKDLNWIHVRDVEEAWKLLKVGRKNQSFASTHMNQQSSRSHSIFSIRILHLQGEGDIVPKISELSLCDLAGSERCKHQKSGERLKEAGNINTSLHTLGRCIAALRQNQQNRSKQNLIPFRDSKLTRVFQGFFTGRGRSCMIVNVNPCASTYDETLHAAKFSALASQLVHAP
With B2, in experiment [2], the binding entry was “no binding (tested: 5 mg/mL)”.

B3: KIF20A 1-565 (full-length motor domain, monomeric construct) (domain or fragment, UniProt P97329 1-565)
chain: MSHRILSPPAGLLSDEDVVDSPILESTAADLRSVVRKDLLSDCSVISASLEDKQALLEDTSEKVKVYLRIRPFLTSELDRQEDQGCVCIENTETLVLQAPKDSFALKSNERGVGQATHKFTFSQIFGPEVGQVAFFNLTMKEMVKDVLKGQNWLIYTYGVTNSGKTYTIQGTSKDAGILPQSLALIFNSLQGQLHPTPDLKPLLSNEVIWLDSKQIRQEEMKKLSLLIGGLQEEELSTSVKKRVHTESRIGASNSFDSGVAGLSSTSQFTSSSQLDETSQLWAQPDTVPVSVPADIRFSVWISFFEIYNELLYDLLEPPSHQHKRQTLRLCEDQNGNPYVKDLNWIHVRDVEEAWKLLKVGRKNQSFASTHMNQQSSRSHSIFSIRILHLQGEGDIVPKISELSLCDLAGSERCKHQKSGERLKEAGNINTSLHTLGRCIAALRQNQQNRSKQNLIPFRDSKLTRVFQGFFTGRGRSCMIVNVNPCASTYDETLHAAKFSALASQLVHAPPVHLGIPSLHSFIKKHSPQVGPGLEKEDKADSDLEDSPEDEADVSVYGKEELLQV
Take B3: the binding entry in experiment [3] is on record as “no binding (tested: 5 mg/mL)”.

B4: KIF20A 25-520 (monomeric construct) (domain or fragment, UniProt P97329 25-520)
chain: ESTAADLRSVVRKDLLSDCSVISASLEDKQALLEDTSEKVKVYLRIRPFLTSELDRQEDQGCVCIENTETLVLQAPKDSFALKSNERGVGQATHKFTFSQIFGPEVGQVAFFNLTMKEMVKDVLKGQNWLIYTYGVTNSGKTYTIQGTSKDAGILPQSLALIFNSLQGQLHPTPDLKPLLSNEVIWLDSKQIRQEEMKKLSLLIGGLQEEELSTSVKKRVHTESRIGASNSFDSGVAGLSSTSQFTSSSQLDETSQLWAQPDTVPVSVPADIRFSVWISFFEIYNELLYDLLEPPSHQHKRQTLRLCEDQNGNPYVKDLNWIHVRDVEEAWKLLKVGRKNQSFASTHMNQQSSRSHSIFSIRILHLQGEGDIVPKISELSLCDLAGSERCKHQKSGERLKEAGNINTSLHTLGRCIAALRQNQQNRSKQNLIPFRDSKLTRVFQGFFTGRGRSCMIVNVNPCASTYDETLHAAKFSALASQLVHAPPVHLGIPSLH
B4: the binding result in experiment [4] is “no binding (tested: 5 mg/mL)”.

B5: KIF20A 55-565 (monomeric construct) (domain or fragment, UniProt P97329 55-565)
chain: ALLEDTSEKVKVYLRIRPFLTSELDRQEDQGCVCIENTETLVLQAPKDSFALKSNERGVGQATHKFTFSQIFGPEVGQVAFFNLTMKEMVKDVLKGQNWLIYTYGVTNSGKTYTIQGTSKDAGILPQSLALIFNSLQGQLHPTPDLKPLLSNEVIWLDSKQIRQEEMKKLSLLIGGLQEEELSTSVKKRVHTESRIGASNSFDSGVAGLSSTSQFTSSSQLDETSQLWAQPDTVPVSVPADIRFSVWISFFEIYNELLYDLLEPPSHQHKRQTLRLCEDQNGNPYVKDLNWIHVRDVEEAWKLLKVGRKNQSFASTHMNQQSSRSHSIFSIRILHLQGEGDIVPKISELSLCDLAGSERCKHQKSGERLKEAGNINTSLHTLGRCIAALRQNQQNRSKQNLIPFRDSKLTRVFQGFFTGRGRSCMIVNVNPCASTYDETLHAAKFSALASQLVHAPPVHLGIPSLHSFIKKHSPQVGPGLEKEDKADSDLEDSPEDEADVSVYGKEELLQV
Consider B5, for which the binding result in experiment [5] was “no binding (tested: 5 mg/mL)”.
